Results on two molecules are retold here after article PMC10995208.

Results are given in words; binding and its absence hold for the method and conditions named. Binding seen in cells or lysates may run through a third protein. Some binding calls cover weakened binding; strength is not graded here. Sequences can lack the tags named with a protein.

Details in all cases: remark: other sources report otherwise
Assay [1] has as its target T1, CD45 (protein tyrosine phosphatase receptor type C), longest isoform CD45RABC, as HA-CD45 and MYC-CD45 in HEK293T cells (human), P08575.
T1 chain: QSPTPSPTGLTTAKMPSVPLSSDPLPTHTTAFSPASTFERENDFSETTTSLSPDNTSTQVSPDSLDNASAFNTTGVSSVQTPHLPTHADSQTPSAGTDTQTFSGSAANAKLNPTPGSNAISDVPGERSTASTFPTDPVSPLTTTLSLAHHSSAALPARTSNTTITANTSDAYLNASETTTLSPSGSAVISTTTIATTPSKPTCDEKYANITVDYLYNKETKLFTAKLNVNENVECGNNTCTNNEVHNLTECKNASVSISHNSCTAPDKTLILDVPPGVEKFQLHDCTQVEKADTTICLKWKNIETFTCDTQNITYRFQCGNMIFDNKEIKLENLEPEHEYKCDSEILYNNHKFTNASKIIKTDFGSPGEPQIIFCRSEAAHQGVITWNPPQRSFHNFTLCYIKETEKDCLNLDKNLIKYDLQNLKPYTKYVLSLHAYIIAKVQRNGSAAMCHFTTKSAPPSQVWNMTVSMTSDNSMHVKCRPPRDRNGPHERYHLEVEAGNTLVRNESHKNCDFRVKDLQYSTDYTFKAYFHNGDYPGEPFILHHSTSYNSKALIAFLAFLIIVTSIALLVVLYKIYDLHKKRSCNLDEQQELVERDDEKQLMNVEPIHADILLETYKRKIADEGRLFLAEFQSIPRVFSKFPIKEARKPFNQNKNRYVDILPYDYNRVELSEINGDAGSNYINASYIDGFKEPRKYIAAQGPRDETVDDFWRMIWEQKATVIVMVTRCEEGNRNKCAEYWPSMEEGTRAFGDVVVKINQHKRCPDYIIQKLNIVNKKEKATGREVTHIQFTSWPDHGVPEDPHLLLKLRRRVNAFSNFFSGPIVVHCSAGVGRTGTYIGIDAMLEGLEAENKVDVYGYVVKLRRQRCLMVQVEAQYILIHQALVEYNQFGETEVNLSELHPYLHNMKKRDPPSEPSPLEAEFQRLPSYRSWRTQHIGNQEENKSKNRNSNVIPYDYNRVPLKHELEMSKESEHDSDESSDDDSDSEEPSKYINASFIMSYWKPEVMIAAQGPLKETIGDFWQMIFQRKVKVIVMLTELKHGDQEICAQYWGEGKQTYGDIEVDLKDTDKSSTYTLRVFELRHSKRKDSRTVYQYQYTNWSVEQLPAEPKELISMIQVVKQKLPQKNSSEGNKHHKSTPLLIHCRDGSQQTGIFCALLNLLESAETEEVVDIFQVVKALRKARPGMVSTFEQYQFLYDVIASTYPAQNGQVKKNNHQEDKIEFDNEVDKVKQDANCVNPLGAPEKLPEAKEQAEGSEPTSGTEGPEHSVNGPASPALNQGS
The experiment in a line: co-IP; HEK293T cells with HA-tagged and HEK293T cells with MYC-tagged CD45 cocultured 1:1 in ultra-low attachment plate for 3 h, NP40 lysis, HA-tag or MYC-tag rabbit antibody overnight at 4 °C, Protein A/G magnetic beads, immunoblot. Background: A western blot detects proteins with antibodies after separation by electrophoresis.

In assay [2] the target is T1, CD45 (protein tyrosine phosphatase …). The experiment in a line: proximity ligation; HEK293T cells with HA-tagged and HEK293T cells with MYC-tagged CD45 cocultured 1:1 in ultra-low attachment plate for 3 h, fixed and permeabilised, HA-tag mouse and MYC-tag rabbit antibodies, Duolink In Situ Detection Reagents Red.
Assay [3] concerns the target T2, CD45 (CD45RABC) as CD45-GFP fusion in Jurkat-sgCD45 cells and as HA-CD45 in Caco2 cells (human), P08575.
T2 chain: T1 chain
In words: proximity ligation; Jurkat-sgCD45-CD45^GFP and Caco2-HA-CD45 cells cocultured 1:1 for 3 h, fixed and permeabilised, Duolink; control Caco2-HA-Ctrl cells gave significantly weaker fluorescence.

Assay [4] concerns the target T2, CD45 (CD45RABC) as CD45-GFP fusion in …. In words: co-IP; Jurkat-sgCD45-CD45^GFP and Caco2-HA-CD45 cells cocultured 1:1 for 3 h, then co-immunoprecipitation as for the HEK293T cells.

B1: CD45 (protein tyrosine phosphatase receptor type C), longest isoform CD45RABC, as HA-CD45 and MYC-CD45 in HEK293T cells, P08575-3 26-1306 (protein)
chain: T1 chain
B1: the binding entry in assay [1] and in assay [2] was “binds” in each case.

B2: CD45 (CD45RABC) as CD45-GFP fusion in Jurkat-sgCD45 cells and as HA-CD45 in Caco2 cells, P08575-3 26-1306 (protein)
chain: T1 chain
In the case of B2, the binding entry in assay [3] and in assay [4] was “binds” in each case.
